Experimental data: patent US20200291391A1, “CROSS-LINKED EPITOPES AND METHODS OF USE THEREOF” (Indi Molecular, Inc., priority 2019, published 2020)
The match of structure and compound is tentative.

By UniProt entry, the sequences of proteins in these tests, tags left out. Residues count along the entry.
UniProt P01732, 22-235 limits assumed: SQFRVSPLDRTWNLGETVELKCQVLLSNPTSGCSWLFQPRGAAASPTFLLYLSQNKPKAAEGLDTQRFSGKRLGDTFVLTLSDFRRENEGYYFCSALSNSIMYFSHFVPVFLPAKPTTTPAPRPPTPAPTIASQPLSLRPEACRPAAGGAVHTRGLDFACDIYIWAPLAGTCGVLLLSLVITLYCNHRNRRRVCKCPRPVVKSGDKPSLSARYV

Target: immobilized recombinant CD8 protein (Homo sapiens, UniProt P01732)
Experiment: Solid-phase ELISA on immobilized recombinant CD8 protein
Method: Eight hits were left after this screening (Table 8) (from top to bottom: SEQ ID NOs:31, 32, 33, 34, 30, 35, 36, 37). These hits were assessed in solid phase ELISA and in flow cytometry experiments (Table 9).
Of the 8 hits obtained from the CD8α/β screen, nfyrr (SEQ ID NO:32) and vlyrr (SEQ ID NO:30) show binding to immobilized recombinant CD8 protein. The EC50 of vlyrr (SEQ ID NO:30) is 77±19 nM. The EC50 of nfyrr (SEQ ID NO:32) is 47±8 nM. The data agree between the solid-phase ELISA and flow experiments.

| SMILES | EC50 |
| --- | --- |
| CC(C)C[C@@H](NC(=O)[C@H](N)C(C)C)C(=O)N[C@H](Cc1ccc(O)cc1)C(=O)N[C@H](CCCNC(=N)N)C(=O)N[C@H](CCCNC(=N)N)C(=O)O | 77 nM |
| N=C(N)NCCC[C@@H](NC(=O)[C@@H](CCCNC(=N)N)NC(=O)[C@@H](Cc1ccc(O)cc1)NC(=O)[C@@H](Cc1ccccc1)NC(=O)[C@H](N)CC(N)=O)C(=O)O | 47 nM |
